Assay results reported in the supplement of paper PMC12823440, “Inhibitors supercharge kinase turnover through native proteolytic circuits” (Nature, 2025).
Some of the results follow. Hit calls seldom repeat between salt and free forms of one compound.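 Kinases, fused to nanoluciferase, were expressed in K562 cells; luminescence was measured every 4 h from 2 to 18 h as percent of control (DMSO = 100%, positive control = 0%). A time point is decreased if signal falls significantly (2 sigma). Hits were called by the authors by a rule that is not shown; the count of time points alone does not decide it.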

Chains of the proteins cited; added tags and fusions are not shown. Lines headed by an entry give the natural chain unless they say otherwise; changes in a name come on top.
UniProt P23458: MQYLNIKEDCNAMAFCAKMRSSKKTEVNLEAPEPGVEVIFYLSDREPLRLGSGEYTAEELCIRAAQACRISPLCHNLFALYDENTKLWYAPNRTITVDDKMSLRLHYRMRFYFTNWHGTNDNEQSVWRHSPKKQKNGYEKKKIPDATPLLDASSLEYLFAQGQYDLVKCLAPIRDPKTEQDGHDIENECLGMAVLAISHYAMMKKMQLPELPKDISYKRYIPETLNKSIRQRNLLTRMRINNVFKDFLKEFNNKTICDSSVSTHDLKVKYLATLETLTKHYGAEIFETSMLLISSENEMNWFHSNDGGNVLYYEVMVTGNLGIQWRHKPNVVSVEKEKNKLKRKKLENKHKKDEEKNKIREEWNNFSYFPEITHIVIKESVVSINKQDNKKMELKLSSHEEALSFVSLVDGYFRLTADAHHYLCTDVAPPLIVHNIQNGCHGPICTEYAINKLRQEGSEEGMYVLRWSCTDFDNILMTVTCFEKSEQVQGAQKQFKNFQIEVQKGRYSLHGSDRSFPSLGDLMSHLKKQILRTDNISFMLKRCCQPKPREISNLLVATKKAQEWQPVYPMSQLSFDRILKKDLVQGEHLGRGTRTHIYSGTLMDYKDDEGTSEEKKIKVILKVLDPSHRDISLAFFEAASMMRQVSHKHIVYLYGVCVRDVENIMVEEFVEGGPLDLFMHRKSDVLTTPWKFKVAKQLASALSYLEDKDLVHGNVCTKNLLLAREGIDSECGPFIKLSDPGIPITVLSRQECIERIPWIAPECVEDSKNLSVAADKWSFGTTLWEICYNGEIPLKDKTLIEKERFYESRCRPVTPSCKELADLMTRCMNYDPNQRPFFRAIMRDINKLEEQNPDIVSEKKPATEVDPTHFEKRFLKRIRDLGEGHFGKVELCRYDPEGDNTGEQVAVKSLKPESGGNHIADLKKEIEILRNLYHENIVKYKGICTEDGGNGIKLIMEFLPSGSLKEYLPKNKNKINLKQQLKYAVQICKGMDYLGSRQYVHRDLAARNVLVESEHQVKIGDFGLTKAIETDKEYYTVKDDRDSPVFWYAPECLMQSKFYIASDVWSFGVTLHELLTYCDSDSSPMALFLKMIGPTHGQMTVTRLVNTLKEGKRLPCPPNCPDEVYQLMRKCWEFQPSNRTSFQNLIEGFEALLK
UniProt P06239: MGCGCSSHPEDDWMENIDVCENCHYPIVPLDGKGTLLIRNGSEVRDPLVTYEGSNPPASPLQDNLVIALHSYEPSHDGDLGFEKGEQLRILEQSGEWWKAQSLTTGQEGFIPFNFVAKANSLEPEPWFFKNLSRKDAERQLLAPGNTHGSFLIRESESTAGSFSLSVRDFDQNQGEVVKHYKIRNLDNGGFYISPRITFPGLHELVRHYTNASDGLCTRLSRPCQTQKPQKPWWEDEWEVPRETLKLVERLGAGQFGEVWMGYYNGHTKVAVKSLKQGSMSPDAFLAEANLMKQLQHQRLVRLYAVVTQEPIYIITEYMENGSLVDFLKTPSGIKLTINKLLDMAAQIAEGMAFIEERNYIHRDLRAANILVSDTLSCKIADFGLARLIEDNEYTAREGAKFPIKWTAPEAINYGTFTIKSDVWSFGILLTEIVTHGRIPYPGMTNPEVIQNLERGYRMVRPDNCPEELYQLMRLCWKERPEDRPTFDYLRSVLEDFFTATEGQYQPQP
UniProt P53667: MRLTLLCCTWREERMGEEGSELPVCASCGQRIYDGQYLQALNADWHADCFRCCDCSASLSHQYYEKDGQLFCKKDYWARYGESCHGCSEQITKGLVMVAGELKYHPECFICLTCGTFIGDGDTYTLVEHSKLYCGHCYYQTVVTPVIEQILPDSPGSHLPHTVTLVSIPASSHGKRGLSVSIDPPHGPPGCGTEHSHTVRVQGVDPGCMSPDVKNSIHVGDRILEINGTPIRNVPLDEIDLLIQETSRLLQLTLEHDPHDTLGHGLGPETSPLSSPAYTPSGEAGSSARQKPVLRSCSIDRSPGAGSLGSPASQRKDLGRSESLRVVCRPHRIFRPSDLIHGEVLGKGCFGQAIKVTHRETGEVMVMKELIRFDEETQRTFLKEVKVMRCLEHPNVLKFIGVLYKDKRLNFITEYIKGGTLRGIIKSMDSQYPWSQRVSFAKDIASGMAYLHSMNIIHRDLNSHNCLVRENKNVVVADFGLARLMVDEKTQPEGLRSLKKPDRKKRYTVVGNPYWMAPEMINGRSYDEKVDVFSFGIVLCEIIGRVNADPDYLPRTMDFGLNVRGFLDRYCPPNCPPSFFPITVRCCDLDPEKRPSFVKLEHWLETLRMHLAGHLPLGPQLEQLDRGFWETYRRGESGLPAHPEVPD
UniProt Q8IWU2: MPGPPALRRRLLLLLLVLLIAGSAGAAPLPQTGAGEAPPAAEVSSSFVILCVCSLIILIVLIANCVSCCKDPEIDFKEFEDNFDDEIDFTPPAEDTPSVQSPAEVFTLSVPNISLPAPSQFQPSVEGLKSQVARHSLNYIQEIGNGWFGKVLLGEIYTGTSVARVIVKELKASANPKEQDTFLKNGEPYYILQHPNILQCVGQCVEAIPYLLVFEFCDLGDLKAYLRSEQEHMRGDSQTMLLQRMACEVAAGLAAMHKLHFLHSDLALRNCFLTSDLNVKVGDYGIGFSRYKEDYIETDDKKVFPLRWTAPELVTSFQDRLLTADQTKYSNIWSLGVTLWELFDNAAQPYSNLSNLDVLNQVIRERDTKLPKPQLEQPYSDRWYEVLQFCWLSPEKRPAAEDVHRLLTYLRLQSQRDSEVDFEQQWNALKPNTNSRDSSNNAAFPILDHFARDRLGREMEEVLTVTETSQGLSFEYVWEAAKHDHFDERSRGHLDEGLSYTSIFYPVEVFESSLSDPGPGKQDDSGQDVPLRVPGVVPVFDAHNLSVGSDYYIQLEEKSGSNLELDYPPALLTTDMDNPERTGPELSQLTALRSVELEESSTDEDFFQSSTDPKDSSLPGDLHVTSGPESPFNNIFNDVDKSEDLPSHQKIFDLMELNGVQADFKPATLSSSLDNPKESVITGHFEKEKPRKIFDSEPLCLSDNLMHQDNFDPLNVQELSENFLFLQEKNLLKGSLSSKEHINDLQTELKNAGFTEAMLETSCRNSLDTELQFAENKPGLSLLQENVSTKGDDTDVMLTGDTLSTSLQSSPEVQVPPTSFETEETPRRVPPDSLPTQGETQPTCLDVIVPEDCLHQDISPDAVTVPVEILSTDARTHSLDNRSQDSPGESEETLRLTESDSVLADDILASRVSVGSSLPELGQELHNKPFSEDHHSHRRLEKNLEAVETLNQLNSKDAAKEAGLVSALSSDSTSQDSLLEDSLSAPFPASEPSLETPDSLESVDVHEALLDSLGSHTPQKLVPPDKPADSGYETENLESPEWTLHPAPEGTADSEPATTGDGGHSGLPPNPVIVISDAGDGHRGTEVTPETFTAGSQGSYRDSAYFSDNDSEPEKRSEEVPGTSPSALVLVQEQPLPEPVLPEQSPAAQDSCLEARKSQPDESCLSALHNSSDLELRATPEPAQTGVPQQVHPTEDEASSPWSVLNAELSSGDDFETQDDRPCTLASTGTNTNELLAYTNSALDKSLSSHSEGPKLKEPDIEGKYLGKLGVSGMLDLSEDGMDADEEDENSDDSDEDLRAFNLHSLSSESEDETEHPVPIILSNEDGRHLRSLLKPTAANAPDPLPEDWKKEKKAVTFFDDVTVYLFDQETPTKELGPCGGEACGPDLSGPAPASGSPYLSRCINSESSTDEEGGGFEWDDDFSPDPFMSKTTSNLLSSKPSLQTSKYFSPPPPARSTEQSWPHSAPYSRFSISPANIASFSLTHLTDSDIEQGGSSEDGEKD
UniProt Q12851: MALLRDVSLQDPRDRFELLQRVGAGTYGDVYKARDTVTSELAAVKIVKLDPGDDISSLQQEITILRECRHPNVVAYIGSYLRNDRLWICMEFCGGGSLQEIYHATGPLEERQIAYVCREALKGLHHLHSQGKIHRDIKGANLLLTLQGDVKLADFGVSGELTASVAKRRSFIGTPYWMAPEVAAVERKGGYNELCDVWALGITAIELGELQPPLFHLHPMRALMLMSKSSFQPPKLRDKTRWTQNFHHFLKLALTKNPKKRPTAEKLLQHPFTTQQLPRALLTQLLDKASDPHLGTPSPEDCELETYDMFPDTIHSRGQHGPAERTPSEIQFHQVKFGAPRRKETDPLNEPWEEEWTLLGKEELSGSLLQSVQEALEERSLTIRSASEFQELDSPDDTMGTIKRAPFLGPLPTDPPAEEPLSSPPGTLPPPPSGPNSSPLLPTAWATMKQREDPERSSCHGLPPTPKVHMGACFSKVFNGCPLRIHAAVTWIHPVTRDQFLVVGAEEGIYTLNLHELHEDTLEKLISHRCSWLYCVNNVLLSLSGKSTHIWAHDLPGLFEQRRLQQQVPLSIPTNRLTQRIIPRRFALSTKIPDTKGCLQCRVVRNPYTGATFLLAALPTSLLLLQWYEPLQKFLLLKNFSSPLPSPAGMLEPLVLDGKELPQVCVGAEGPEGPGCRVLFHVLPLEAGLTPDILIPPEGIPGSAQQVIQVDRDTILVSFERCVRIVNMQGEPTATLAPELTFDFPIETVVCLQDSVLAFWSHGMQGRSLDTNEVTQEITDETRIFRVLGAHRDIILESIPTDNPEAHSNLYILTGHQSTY
UniProt P31152, whole entry: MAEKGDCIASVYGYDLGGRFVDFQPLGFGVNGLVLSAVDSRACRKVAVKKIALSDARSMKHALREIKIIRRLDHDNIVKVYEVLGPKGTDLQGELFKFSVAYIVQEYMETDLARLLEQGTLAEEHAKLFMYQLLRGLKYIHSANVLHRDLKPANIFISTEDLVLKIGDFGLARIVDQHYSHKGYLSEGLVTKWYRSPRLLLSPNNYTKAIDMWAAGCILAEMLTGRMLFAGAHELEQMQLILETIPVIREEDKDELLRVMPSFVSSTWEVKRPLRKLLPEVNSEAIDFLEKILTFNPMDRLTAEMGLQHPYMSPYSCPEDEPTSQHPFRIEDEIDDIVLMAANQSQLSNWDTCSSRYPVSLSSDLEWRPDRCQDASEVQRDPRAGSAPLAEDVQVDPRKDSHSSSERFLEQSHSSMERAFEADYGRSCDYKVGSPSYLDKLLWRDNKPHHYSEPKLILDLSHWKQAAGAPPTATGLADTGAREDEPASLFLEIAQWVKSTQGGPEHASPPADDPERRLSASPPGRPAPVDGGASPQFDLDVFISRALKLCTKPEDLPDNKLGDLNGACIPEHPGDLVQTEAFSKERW
UniProt P49137, whole entry, looked up: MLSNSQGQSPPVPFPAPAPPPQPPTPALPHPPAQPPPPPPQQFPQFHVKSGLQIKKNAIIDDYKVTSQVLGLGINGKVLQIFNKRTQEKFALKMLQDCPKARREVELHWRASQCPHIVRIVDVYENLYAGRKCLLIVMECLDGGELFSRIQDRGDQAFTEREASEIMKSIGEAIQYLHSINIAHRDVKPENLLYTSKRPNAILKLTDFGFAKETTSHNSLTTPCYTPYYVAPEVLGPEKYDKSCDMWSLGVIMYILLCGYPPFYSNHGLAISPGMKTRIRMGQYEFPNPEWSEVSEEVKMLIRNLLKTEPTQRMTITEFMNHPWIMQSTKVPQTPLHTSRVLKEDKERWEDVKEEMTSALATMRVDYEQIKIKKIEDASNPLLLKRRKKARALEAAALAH
UniProt Q16288, whole entry, looked up: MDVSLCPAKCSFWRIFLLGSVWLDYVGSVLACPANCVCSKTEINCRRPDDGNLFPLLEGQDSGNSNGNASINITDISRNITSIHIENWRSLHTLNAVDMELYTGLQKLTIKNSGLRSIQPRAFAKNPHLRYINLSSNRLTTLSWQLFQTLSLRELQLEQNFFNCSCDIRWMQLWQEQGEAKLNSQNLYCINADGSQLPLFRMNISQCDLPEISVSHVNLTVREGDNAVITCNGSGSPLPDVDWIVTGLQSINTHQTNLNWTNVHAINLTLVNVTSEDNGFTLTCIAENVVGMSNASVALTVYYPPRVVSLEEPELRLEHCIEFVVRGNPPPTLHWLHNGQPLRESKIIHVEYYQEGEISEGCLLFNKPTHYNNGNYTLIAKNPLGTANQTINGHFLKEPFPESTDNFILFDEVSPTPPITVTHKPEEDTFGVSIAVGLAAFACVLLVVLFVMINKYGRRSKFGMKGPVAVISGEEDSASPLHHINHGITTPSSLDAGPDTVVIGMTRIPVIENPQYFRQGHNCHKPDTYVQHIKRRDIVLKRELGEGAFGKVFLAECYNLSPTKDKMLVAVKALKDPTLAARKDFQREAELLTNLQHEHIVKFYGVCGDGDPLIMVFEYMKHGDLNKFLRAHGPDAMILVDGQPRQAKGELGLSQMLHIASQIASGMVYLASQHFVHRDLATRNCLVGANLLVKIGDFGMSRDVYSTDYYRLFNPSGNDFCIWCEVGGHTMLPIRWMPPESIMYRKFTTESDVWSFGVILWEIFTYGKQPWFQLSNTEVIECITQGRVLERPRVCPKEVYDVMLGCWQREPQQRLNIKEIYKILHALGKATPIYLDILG

Experiments:
Test in all cases: kinase-Nluc reporter destabilization hit call (1 = scored as downregulated) (binary); higher = compound decreases kinase abundance
Details in all cases: K562; 2-18 h
IRAK3 = IRAK3 (UniProt Q9Y616)
JAK1 = JAK1 (UniProt P23458)
LCK = LCK (UniProt P06239)
LIMK1 = LIMK1 (UniProt P53667)
LIMK2 = LIMK2 (UniProt P53671)
LMTK2 = LMTK2 (UniProt Q8IWU2)
LYN = LYN (UniProt P07948)
MAP2K1 = MAP2K1 (UniProt Q02750)
MAP2K2 = MAP2K2 (UniProt P36507)
MAP4K2 = MAP4K2 (UniProt Q12851)
MAPK1 = MAPK1 (UniProt P28482)
MAPK4 = MAPK4 (UniProt P31152)
MAPKAPK2 = MAPKAPK2 (UniProt P49137)
MKNK1 = MKNK1 (UniProt Q9BUB5)
NTRK2 = NTRK2 (UniProt Q16620)
NTRK3 = NTRK3 (UniProt Q16288)
PAK4 = PAK4 (UniProt O96013)
PBK = PBK (UniProt Q96KB5)
PDGFRB = PDGFRB (UniProt P09619)
PDK1 = PDK1 (UniProt Q15118)

Measured: kinase-Nluc reporter destabilization hit call

C#CCN(C)C(=O)CCNc1nc(N2CCN(C(=O)C=C)CC2)c2cc(Cl)c(-c3c(O)cccc3F)c(F)c2n1 [ARS-1323-alkyne] (2.5 µM)
inactive: IRAK3 = 0 | JAK1 = 0 | LCK 0 | LIMK1 = 0 | LIMK2 = 0 | LMTK2 = 0 | LYN 0 | MAP2K1 = 0 | MAP2K2 = 0 | MAP4K2 = 0 | MAPK1 = 0 | MAPK4 = 0 | MAPKAPK2 = 0 | MKNK1 = 0 | NTRK2 = 0 | NTRK3 = 0 | PAK4 = 0 | PBK 0 | PDGFRB 0 | PDK1 = 0

O=c1cc(O)cc(/C=C/c2ccc(O)c(O)c2)o1 [Hispidin] (10 µM)
inactive: IRAK3 = 0 | JAK1 = 0 | LCK 0 | LIMK1 = 0 | LIMK2 = 0 | LMTK2 = 0 | LYN 0 | MAP2K1 = 0 | MAP2K2 = 0 | MAP4K2 = 0 | MAPK1 = 0 | MAPK4 = 0 | MAPKAPK2 = 0 | MKNK1 = 0 | NTRK2 = 0 | NTRK3 = 0 | PAK4 = 0 | PBK 0 | PDGFRB 0 | PDK1 = 0

CC(C)(C)c1ccc(S(=O)(=O)Nc2ccc(-n3ccnc3)cc2)cc1 (10 µM)
inactive: IRAK3 = 0 | JAK1 = 0 | LCK 0 | LIMK1 = 0 | LIMK2 = 0 | LMTK2 = 0 | LYN 0 | MAP2K1 = 0 | MAP2K2 = 0 | MAP4K2 = 0 | MAPK1 = 0 | MAPK4 = 0 | MAPKAPK2 = 0 | MKNK1 = 0 | NTRK2 = 0 | NTRK3 = 0 | PAK4 = 0 | PBK 0 | PDGFRB 0 | PDK1 = 0

Cc1cc(Nc2cc3ncccc3c(N[C@@H]3C[C@H]4CC[C@@H](C3)N4CCC#N)n2)n[nH]1 [Izencitinib] (10 µM)
inactive: IRAK3 = 0 | JAK1 = 0 | LCK 0 | LIMK1 = 0 | LIMK2 = 0 | LMTK2 = 0 | LYN 0 | MAP2K1 = 0 | MAP2K2 = 0 | MAP4K2 = 0 | MAPK1 = 0 | MAPK4 = 0 | MAPKAPK2 = 0 | MKNK1 = 0 | NTRK2 = 0 | NTRK3 = 0 | PAK4 = 0 | PBK 0 | PDGFRB 0 | PDK1 = 0

C/C(=C1/C(=O)Nc2ccc(NC(N)=O)cc21)c1ccc[nH]1 (10 µM)
inactive: IRAK3 = 0 | JAK1 = 0 | LCK 0 | LIMK1 = 0 | LIMK2 = 0 | LMTK2 = 0 | LYN 0 | MAP2K1 = 0 | MAP2K2 = 0 | MAP4K2 = 0 | MAPK1 = 0 | MAPK4 = 0 | MAPKAPK2 = 0 | MKNK1 = 0 | NTRK2 = 0 | NTRK3 = 0 | PAK4 = 0 | PBK 0 | PDGFRB 0 | PDK1 = 0

Cc1cc(O)c(C(C)C)cc1N=O [Poloxime] (10 µM)
inactive: IRAK3 = 0 | JAK1 = 0 | LCK 0 | LIMK1 = 0 | LIMK2 = 0 | LMTK2 = 0 | LYN 0 | MAP2K1 = 0 | MAP2K2 = 0 | MAP4K2 = 0 | MAPK1 = 0 | MAPK4 = 0 | MAPKAPK2 = 0 | MKNK1 = 0 | NTRK2 = 0 | NTRK3 = 0 | PAK4 = 0 | PBK 0 | PDGFRB 0 | PDK1 = 0

COc1ccc(-c2ccc3c(N4CCOC[C@@H]4C)nc(N4CCOC[C@@H]4C)nc3n2)cc1CO (2.5 µM)
inactive: IRAK3 = 0 | JAK1 = 0 | LCK 0 | LIMK1 = 0 | LIMK2 = 0 | LMTK2 = 0 | LYN 0 | MAP2K1 = 0 | MAP2K2 = 0 | MAP4K2 = 0 | MAPK1 = 0 | MAPK4 = 0 | MAPKAPK2 = 0 | MKNK1 = 0 | NTRK2 = 0 | NTRK3 = 0 | PAK4 = 0 | PBK 0 | PDGFRB 0 | PDK1 = 0

Cc1ccc(-c2c(C(=O)CCl)n(CCCO)c3ncnc(N)c23)cc1 (10 µM)
inactive: IRAK3 = 0 | JAK1 = 0 | LCK 0 | LIMK1 = 0 | LIMK2 = 0 | LMTK2 = 0 | LYN 0 | MAP2K1 = 0 | MAP2K2 = 0 | MAP4K2 = 0 | MAPK1 = 0 | MAPK4 = 0 | MAPKAPK2 = 0 | MKNK1 = 0 | NTRK2 = 0 | NTRK3 = 0 | PAK4 = 0 | PBK 0 | PDGFRB 0 | PDK1 = 0

CC(=O)c1c(C)c2cnc(Nc3ccc(N4CCN(CCCCNC(=O)COc5cccc6c5C(=O)N(C5CCC(=O)NC5=O)C6=O)CC4)cn3)nc2n(C2CCCC2)c1=O (stereo not given) (10 µM)
inactive: IRAK3 = 0 | JAK1 = 0 | LCK 0 | LIMK1 = 0 | LIMK2 = 0 | LMTK2 = 0 | LYN 0 | MAP2K1 = 0 | MAP2K2 = 0 | MAP4K2 = 0 | MAPK1 = 0 | MAPK4 = 0 | MAPKAPK2 = 0 | MKNK1 = 0 | NTRK2 = 0 | NTRK3 = 0 | PAK4 = 0 | PBK 0 | PDGFRB 0 | PDK1 = 0

N#Cc1ccc2ncnc(NC3CCC(N4CCOCC4)CC3)c2c1 (stereo not given) (10 µM)
inactive: IRAK3 = 0 | JAK1 = 0 | LCK 0 | LIMK1 = 0 | LIMK2 = 0 | LMTK2 = 0 | LYN 0 | MAP2K1 = 0 | MAP2K2 = 0 | MAP4K2 = 0 | MAPK1 = 0 | MAPK4 = 0 | MAPKAPK2 = 0 | MKNK1 = 0 | NTRK2 = 0 | NTRK3 = 0 | PAK4 = 0 | PBK 0 | PDGFRB 0 | PDK1 = 0

NCc1ccc(Nc2ncc(F)c(Nc3ccccc3)n2)cc1 (10 µM)
inactive: IRAK3 = 0 | JAK1 = 0 | LCK 0 | LIMK1 = 0 | LIMK2 = 0 | LMTK2 = 0 | LYN 0 | MAP2K1 = 0 | MAP2K2 = 0 | MAP4K2 = 0 | MAPK1 = 0 | MAPK4 = 0 | MAPKAPK2 = 0 | MKNK1 = 0 | NTRK2 = 0 | NTRK3 = 0 | PAK4 = 0 | PBK 0 | PDGFRB 0 | PDK1 = 0

CN1C(=O)C(Cc2c[nH]c3ccccc23)NC1=S (stereo not given) [Necrostatin-1] (10 µM)
inactive: IRAK3 = 0 | JAK1 = 0 | LCK 0 | LIMK1 = 0 | LIMK2 = 0 | LMTK2 = 0 | LYN 0 | MAP2K1 = 0 | MAP2K2 = 0 | MAP4K2 = 0 | MAPK1 = 0 | MAPK4 = 0 | MAPKAPK2 = 0 | MKNK1 = 0 | NTRK2 = 0 | NTRK3 = 0 | PAK4 = 0 | PBK 0 | PDGFRB 0 | PDK1 = 0

Nc1nccc(Oc2ccc(NC(=O)c3cn(COP(=O)(O)O)cc(-c4ccc(F)cc4)c3=O)cc2F)c1Cl (10 µM)
inactive: IRAK3 = 0 | JAK1 = 0 | LCK 0 | LIMK1 = 0 | LIMK2 = 0 | LMTK2 = 0 | LYN 0 | MAP2K1 = 0 | MAP2K2 = 0 | MAP4K2 = 0 | MAPK1 = 0 | MAPK4 = 0 | MAPKAPK2 = 0 | MKNK1 = 0 | NTRK2 = 0 | NTRK3 = 0 | PAK4 = 0 | PBK 0 | PDGFRB 0 | PDK1 = 0

CC(c1ccc(-c2cnc3c(-c4ccc(S(N)(=O)=O)c5ccccc45)cnn3c2)cc1)N1CCCC1 (stereo not given) (2.5 µM)
inactive: IRAK3 = 0 | JAK1 = 0 | LCK 0 | LIMK1 = 0 | LIMK2 = 0 | LMTK2 = 0 | LYN 0 | MAP2K1 = 0 | MAP2K2 = 0 | MAP4K2 = 0 | MAPK1 = 0 | MAPK4 = 0 | MAPKAPK2 = 0 | MKNK1 = 0 | NTRK2 = 0 | NTRK3 = 0 | PAK4 = 0 | PBK 0 | PDGFRB 0 | PDK1 = 0

OC(COc1ccc(C(F)(F)F)cc1)CN(Cc1ccccc1)Cc1ccccc1 (stereo not given) (2.5 µM)
inactive: IRAK3 = 0 | JAK1 = 0 | LCK 0 | LIMK1 = 0 | LIMK2 = 0 | LMTK2 = 0 | LYN 0 | MAP2K1 = 0 | MAP2K2 = 0 | MAP4K2 = 0 | MAPK1 = 0 | MAPK4 = 0 | MAPKAPK2 = 0 | MKNK1 = 0 | NTRK2 = 0 | NTRK3 = 0 | PAK4 = 0 | PBK 0 | PDGFRB 0 | PDK1 = 0

CC1=C2C(=O)O[C@@H](c3ccoc3)[C@]2(C)CCC1 [Fraxinellone] (10 µM)
inactive: IRAK3 = 0 | JAK1 = 0 | LCK 0 | LIMK1 = 0 | LIMK2 = 0 | LMTK2 = 0 | LYN 0 | MAP2K1 = 0 | MAP2K2 = 0 | MAP4K2 = 0 | MAPK1 = 0 | MAPK4 = 0 | MAPKAPK2 = 0 | MKNK1 = 0 | NTRK2 = 0 | NTRK3 = 0 | PAK4 = 0 | PBK 0 | PDGFRB 0 | PDK1 = 0

Cn1nccc1Nc1nccc(-c2cc3c(s2)C(C)(C)N(CCN2CCOCC2)C3=O)n1 (10 µM)
inactive: IRAK3 = 0 | JAK1 = 0 | LCK 0 | LIMK1 = 0 | LIMK2 = 0 | LMTK2 = 0 | LYN 0 | MAP2K1 = 0 | MAP2K2 = 0 | MAP4K2 = 0 | MAPK1 = 0 | MAPK4 = 0 | MAPKAPK2 = 0 | MKNK1 = 0 | NTRK2 = 0 | NTRK3 = 0 | PAK4 = 0 | PBK 0 | PDGFRB 0 | PDK1 = 0

Ordered by count of non-hydrogen atoms (low to high): some entries from above
CC1=C2C(=O)O[C@@H](c3ccoc3)[C@]2(C)CCC1 [Fraxinellone] (10 µM)
inactive: IRAK3 = 0 | JAK1 = 0 | LCK 0 | LIMK1 = 0 | LIMK2 = 0 | LMTK2 = 0 | LYN 0 | MAP2K1 = 0 | MAP2K2 = 0 | MAP4K2 = 0 | MAPK1 = 0 | MAPK4 = 0 | MAPKAPK2 = 0 | MKNK1 = 0 | NTRK2 = 0 | NTRK3 = 0 | PAK4 = 0 | PBK 0 | PDGFRB 0 | PDK1 = 0

N#Cc1ccc2ncnc(NC3CCC(N4CCOCC4)CC3)c2c1 (stereo not given) (10 µM)
inactive: IRAK3 = 0 | JAK1 = 0 | LCK 0 | LIMK1 = 0 | LIMK2 = 0 | LMTK2 = 0 | LYN 0 | MAP2K1 = 0 | MAP2K2 = 0 | MAP4K2 = 0 | MAPK1 = 0 | MAPK4 = 0 | MAPKAPK2 = 0 | MKNK1 = 0 | NTRK2 = 0 | NTRK3 = 0 | PAK4 = 0 | PBK 0 | PDGFRB 0 | PDK1 = 0

Nc1nccc(Oc2ccc(NC(=O)c3cn(COP(=O)(O)O)cc(-c4ccc(F)cc4)c3=O)cc2F)c1Cl (10 µM)
inactive: IRAK3 = 0 | JAK1 = 0 | LCK 0 | LIMK1 = 0 | LIMK2 = 0 | LMTK2 = 0 | LYN 0 | MAP2K1 = 0 | MAP2K2 = 0 | MAP4K2 = 0 | MAPK1 = 0 | MAPK4 = 0 | MAPKAPK2 = 0 | MKNK1 = 0 | NTRK2 = 0 | NTRK3 = 0 | PAK4 = 0 | PBK 0 | PDGFRB 0 | PDK1 = 0

The listing continues:

COc1ccc2[nH]cc(/C=C3\C(=O)Nc4ccc(NC(=O)CCN5CCCCC5)cc43)c2c1 (2.5 µM)
inactive: IRAK3 = 0 | JAK1 = 0 | LCK 0 | LIMK1 = 0 | LIMK2 = 0 | LMTK2 = 0 | LYN 0 | MAP2K1 = 0 | MAP2K2 = 0 | MAP4K2 = 0 | MAPK1 = 0 | MAPK4 = 0 | MAPKAPK2 = 0 | MKNK1 = 0 | NTRK2 = 0 | NTRK3 = 0 | PAK4 = 0 | PBK 0 | PDGFRB 0 | PDK1 = 0
